Results are given in words; binding and its absence hold for the method and conditions named. Binding can be weak; no strength is given. For some assays here: Binding seen in cells or lysates may run through a third protein.

By UniProt entry, the sequences of proteins in these tests, tags left out. Where a name states a change or a piece, a line headed by the entry shows the natural chain unless it says otherwise.
UniProt P64606: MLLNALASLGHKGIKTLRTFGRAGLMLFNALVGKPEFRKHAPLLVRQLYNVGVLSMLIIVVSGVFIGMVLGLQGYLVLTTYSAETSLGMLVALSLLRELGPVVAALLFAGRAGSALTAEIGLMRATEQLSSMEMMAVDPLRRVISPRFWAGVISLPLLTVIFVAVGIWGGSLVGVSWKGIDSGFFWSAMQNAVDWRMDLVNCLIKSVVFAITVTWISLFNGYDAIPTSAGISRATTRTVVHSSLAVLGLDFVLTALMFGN

Experiment [1] deals with T1, MlaB Thr52Ala (E. coli K-12) (UniProt P64602).
T1 sequence: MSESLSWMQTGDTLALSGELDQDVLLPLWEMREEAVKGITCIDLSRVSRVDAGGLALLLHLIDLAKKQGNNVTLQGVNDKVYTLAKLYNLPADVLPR
The experiment is described as follows: pull-down.

A further experiment has as its target MlaE (E. coli K-12) (UniProt P64606). Briefly: cryo-EM structure.

For MlaE (from UniProt P64606), in experiment [1], the binding entry was “binds”.

B1: MlaF (natural protein)
chain: MEQSVANLVDMRDVSFTRGNRCIFDNISLTVPRGKITAIMGPSGIGKTTLLRLIGGQIAPDHGEILFDGENIPAMSRSRLYTVRKRMSMLFQSGALFTDMNVFDNVAYPLREHTQLPAPLLHSTVMMKLEAVGLRGAAKLMPSELSGGMARRAALARAIALEPDLIMFDEPFVGQDPITMGVLVKLISELNSALGVTCVVVSHDVPEVLSIADHAWILADKKIVAHGSAQALQANPDPRVRQFLDGIADGPVPFRYPAGDYHADLLPGS
For the molecule B1, in the experiment with MlaE (E. coli K-12), the binding result is on record as “binds”.

The values above are taken from article doi:10.1101/2020.06.04.133611 (bioRxiv, 2020).
